This assay deals with Recombinant His-tagged Hsp70 protein, equivalent to HSPA1A. Kind of assay: ELISA; peptide ELISA: heat shock proteins coated on MaxiSorp plates (1 µg/well/100 µl, carbonate buffer pH 9.6, 4°C overnight), blocked with PBS 2% BSA; CF-labeled peptides 100, 50, 25 ng/ml, 27°C 30 min; fluorescence counts read; both purified. (In general: ELISA stands for enzyme-linked immunosorbent assay.)

Results are given in words; binding and its absence hold for the method and conditions named.

Consider one molecule from article PMC4148261.

B1: carboxyfluorescein (CF-) labeled scrambled peptide (peptide)
peptide: NGLTLKNDFSRLEG
modifications: carboxyfluorescein (CF) label, position not stated
In the case of B1, the binding result is “no binding (tested: 100 ng/ml)”.
